Experimental data reported in patent publication US5869453A, “Cytotoxic T-cell epitopes” (The Council of the Queensland Institute of Medical Research, priority 1994, dated 1999).
Part of at least one peptide drawing is inferred or uncertain, most often the ends. Where a SMILES comes first, the peptide text is derived from it.

Assays:
[1] = tested on: CTL; experiment: Minimalisation experiment with overlapping 9 mer peptides (chromium release); type: cell-based, human; conditions: overlapping 9 mer peptides from EBNA4, FIG. 3
[2] = tested on: Epstein-Barr virus types A and B; experiment: A/B EBV type specificity of CTL epitope (standard protocols); type: cell-based
[3] = tested on: polyclonal CTLs from donor; experiment: 51Cr-release peptide screen of overlapping EBNA4 peptides on autologous PHA blasts; type: cell-based, human; conditions: day 10-11, peptide 100 μM

| Compound | minimal epitope within the 20 mer peptide [1] | A/B SPECIFICITY [2] | reactivity in 51Cr-release assay [3] |
| --- | --- | --- | --- |
| CSCC[C@H](NC(=O)[C@H](CO)NC(=O)[C@H](CCC(=O)O)NC(=O)[C@H](CCC(=O)O)NC(=O)[C@H](Cc1c[nH]cn1)NC(=O)[C@H](CC(C)C)NC(=O)[C@H](CC(C)C)NC(=O)[C@@H](NC(=O)[C@H](C)N)C(C)C)C(=O)O | confirmed minimal epitope | type A specific | – |
| CSCC[C@H](NC(=O)[C@H](CO)NC(=O)CNC(=O)[C@H](Cc1c[nH]cn1)NC(=O)[C@@H](NC(=O)[C@H](CCC(N)=O)NC(=O)[C@@H](NC(=O)[C@H](CCC(N)=O)NC(=O)[C@H](CCSC)NC(=O)[C@H](CO)NC(=O)[C@H](CCC(=O)O)NC(=O)[C@H](CCC(=O)O)NC(=O)[C@H](Cc1c[nH]cn1)NC(=O)[C@H](CC(C)C)NC(=O)[C@H](CC(C)C)NC(=O)[C@@H](NC(=O)[C@H](C)NC(=O)[C@@H](NC(=O)[C@@H](N)C(C)C)[C@@H](C)O)C(C)C)C(C)C)C(C)C)C(=O)O [peptide 52] (H-VTAVLLHEESMQVQVHGSM-OH) | – | – | strong reactivity |
